Results published in paper PMC5339883.
These are yes or no findings as the source states them, for the method shown. Where a sequence is shown, tags or fusion partners need not be part of it.

What was measured:
[1] = biological target: T1, GST-tagged Rab17 (wild type) (UniProt Q9H0T7); test: pull-down; GST–Rab17 constructs on glutathione beads; equal quantities of Vamp8 and Rab17 incubated for 16 h at 4°C; beads washed twice with PBS; NuPAGE gel, Coomassie stain; both purified
T1 sequence: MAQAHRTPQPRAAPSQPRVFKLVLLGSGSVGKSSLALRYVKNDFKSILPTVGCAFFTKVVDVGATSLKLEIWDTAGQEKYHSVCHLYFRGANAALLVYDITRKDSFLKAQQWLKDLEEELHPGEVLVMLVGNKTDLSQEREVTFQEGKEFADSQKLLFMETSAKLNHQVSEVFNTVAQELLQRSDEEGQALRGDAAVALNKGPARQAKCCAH

[2] = biological target: T2, GST–Rab17Q77L (UniProt Q9H0T7); test: as above
T2 sequence: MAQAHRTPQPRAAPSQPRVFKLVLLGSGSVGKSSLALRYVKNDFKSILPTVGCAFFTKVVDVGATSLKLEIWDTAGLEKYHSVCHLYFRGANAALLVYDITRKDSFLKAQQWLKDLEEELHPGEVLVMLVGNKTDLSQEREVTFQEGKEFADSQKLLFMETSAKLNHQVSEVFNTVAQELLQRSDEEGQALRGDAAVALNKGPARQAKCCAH

B1: cytoplasmic region of Vamp8 (domain or fragment, UniProt Q9BV40 1-74)
chain: MEEASEGGGNDRVRNLQSEVEGVKNIMTQNVERILARGENLEHLRNKTEDLEATSEHFKTTSQKVARKFWWKNV
[1]
  binding: no binding
[2]
  binding: no binding
